# Some of the results follow.
# By UniProt entry, the sequences of proteins in these tests, tags left out. Where a name states a change or a piece, a line headed by the entry shows the natural chain unless it says otherwise.
# UniProt O94819: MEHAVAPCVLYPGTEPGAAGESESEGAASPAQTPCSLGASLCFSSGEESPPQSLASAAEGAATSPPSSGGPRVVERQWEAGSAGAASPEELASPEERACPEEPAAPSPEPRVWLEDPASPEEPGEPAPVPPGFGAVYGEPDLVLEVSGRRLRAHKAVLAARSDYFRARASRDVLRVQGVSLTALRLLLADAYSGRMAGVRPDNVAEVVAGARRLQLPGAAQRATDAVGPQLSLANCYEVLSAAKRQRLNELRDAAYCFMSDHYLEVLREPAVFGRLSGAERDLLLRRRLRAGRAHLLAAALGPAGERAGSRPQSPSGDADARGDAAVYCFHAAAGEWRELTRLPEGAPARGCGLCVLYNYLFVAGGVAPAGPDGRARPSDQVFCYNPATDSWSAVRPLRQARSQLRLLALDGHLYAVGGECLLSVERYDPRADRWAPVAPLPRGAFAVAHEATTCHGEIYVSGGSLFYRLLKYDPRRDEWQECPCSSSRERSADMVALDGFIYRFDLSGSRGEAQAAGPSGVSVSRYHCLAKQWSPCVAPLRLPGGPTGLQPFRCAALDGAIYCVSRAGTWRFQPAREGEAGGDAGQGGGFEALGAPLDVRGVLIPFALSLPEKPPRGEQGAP
# UniProt Q15046, whole entry, looked up: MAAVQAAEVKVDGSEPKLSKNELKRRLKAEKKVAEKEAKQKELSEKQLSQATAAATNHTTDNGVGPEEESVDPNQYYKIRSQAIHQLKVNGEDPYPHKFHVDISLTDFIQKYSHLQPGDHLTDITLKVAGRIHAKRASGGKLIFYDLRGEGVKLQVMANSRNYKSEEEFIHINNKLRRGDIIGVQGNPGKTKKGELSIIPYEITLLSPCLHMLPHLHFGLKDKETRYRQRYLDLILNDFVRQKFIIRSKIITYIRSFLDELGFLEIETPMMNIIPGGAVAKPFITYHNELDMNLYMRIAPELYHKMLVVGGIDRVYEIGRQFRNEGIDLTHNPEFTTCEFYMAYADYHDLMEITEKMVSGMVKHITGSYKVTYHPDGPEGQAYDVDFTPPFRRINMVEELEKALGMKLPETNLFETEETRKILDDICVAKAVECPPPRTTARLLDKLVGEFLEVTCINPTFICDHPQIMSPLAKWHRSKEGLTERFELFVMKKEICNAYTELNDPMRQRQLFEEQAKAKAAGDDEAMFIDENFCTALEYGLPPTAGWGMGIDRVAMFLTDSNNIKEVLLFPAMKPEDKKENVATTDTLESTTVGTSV
# UniProt Q9NXV2: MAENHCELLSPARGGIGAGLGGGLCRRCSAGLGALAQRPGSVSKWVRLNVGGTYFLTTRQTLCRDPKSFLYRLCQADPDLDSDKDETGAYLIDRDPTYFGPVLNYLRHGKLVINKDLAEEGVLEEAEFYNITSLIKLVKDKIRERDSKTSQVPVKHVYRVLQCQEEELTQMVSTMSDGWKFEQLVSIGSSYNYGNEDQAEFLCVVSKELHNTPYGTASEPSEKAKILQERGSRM
# UniProt Q14145, whole entry, looked up: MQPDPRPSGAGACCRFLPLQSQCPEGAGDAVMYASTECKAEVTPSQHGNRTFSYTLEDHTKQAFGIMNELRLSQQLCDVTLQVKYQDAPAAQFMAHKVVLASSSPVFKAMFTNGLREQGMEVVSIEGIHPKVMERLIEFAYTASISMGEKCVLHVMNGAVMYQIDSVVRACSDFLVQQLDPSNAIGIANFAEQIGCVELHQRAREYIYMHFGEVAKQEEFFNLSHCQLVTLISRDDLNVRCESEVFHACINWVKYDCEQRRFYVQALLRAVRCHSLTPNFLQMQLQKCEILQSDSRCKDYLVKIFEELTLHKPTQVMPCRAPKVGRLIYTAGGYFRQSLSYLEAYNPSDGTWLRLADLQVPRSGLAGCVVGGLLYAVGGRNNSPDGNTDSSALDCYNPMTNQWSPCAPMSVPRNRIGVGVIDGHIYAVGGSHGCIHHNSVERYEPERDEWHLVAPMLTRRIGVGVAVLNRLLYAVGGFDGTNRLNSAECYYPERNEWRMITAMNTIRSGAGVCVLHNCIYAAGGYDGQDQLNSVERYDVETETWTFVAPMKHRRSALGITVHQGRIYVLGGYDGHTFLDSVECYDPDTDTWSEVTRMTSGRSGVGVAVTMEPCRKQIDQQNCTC
# UniProt P52732: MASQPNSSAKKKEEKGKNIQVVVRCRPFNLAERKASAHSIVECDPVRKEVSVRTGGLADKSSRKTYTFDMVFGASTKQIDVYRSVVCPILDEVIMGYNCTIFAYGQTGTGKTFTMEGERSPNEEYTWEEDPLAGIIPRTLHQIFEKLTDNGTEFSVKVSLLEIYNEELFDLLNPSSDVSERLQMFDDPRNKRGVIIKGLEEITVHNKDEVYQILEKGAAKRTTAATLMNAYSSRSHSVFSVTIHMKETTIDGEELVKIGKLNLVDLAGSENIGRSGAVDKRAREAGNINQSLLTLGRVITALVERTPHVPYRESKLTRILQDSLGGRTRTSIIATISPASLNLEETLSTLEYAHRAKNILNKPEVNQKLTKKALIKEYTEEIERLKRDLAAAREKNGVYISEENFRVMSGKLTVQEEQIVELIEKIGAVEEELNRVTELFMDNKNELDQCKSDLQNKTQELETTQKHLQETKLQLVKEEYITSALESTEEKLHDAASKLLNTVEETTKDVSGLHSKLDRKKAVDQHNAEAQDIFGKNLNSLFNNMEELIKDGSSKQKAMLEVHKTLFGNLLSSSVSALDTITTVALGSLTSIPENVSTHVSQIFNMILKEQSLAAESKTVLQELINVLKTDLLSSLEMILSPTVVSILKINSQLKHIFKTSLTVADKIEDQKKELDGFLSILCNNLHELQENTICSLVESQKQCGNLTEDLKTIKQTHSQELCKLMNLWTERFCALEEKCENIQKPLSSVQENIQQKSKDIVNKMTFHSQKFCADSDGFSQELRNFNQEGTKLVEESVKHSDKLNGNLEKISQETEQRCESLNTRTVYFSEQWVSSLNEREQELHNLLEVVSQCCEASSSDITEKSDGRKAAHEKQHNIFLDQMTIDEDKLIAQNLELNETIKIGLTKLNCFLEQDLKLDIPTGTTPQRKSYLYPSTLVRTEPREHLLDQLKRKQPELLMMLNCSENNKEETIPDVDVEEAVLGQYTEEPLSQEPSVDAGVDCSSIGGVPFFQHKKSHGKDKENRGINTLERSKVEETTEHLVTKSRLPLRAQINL
# UniProt Q7LBC6: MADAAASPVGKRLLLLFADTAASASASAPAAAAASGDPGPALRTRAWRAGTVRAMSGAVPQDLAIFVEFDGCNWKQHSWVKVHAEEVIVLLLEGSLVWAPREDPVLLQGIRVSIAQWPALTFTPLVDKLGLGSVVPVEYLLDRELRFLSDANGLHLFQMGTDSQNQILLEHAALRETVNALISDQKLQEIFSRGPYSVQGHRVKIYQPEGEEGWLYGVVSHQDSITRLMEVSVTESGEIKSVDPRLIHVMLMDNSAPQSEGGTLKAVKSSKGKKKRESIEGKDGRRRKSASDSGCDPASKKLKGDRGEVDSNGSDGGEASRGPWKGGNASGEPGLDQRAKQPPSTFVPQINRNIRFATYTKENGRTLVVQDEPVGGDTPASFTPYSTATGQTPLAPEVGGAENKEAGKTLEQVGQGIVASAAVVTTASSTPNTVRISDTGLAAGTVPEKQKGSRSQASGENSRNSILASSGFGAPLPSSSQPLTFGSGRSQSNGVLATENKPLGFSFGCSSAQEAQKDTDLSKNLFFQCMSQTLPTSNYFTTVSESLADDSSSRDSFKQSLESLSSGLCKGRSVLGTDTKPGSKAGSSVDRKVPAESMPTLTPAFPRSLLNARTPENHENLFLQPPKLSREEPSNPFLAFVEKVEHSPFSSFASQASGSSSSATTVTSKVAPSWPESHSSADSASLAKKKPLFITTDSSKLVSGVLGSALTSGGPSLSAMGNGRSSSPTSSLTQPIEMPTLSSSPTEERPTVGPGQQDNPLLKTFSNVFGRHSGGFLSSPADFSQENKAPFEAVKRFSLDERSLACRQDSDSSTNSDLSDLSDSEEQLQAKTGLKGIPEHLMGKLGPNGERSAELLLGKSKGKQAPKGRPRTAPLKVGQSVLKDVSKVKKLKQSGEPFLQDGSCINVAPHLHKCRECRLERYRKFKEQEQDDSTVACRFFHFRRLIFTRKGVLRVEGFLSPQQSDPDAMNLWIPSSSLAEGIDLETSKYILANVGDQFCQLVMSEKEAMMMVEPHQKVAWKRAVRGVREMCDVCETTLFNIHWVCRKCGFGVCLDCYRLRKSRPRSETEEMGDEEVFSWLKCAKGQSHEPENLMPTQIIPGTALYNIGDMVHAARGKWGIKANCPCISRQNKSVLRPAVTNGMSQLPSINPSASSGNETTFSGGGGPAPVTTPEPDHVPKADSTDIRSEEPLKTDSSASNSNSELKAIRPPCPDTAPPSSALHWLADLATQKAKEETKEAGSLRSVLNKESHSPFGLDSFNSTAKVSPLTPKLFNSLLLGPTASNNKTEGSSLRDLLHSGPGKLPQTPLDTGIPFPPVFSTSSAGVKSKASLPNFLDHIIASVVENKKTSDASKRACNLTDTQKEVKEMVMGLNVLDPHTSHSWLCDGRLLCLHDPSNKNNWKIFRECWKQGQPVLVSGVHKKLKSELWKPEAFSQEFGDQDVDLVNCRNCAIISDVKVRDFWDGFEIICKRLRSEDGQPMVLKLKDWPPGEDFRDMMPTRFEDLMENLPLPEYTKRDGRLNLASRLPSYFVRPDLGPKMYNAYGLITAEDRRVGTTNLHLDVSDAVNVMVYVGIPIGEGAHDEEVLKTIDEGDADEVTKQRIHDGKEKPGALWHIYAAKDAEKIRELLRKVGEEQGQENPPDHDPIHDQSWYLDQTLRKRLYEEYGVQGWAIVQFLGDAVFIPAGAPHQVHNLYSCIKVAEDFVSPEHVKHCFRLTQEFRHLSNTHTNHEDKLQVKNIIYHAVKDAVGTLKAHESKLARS
# UniProt Q9H7Z6: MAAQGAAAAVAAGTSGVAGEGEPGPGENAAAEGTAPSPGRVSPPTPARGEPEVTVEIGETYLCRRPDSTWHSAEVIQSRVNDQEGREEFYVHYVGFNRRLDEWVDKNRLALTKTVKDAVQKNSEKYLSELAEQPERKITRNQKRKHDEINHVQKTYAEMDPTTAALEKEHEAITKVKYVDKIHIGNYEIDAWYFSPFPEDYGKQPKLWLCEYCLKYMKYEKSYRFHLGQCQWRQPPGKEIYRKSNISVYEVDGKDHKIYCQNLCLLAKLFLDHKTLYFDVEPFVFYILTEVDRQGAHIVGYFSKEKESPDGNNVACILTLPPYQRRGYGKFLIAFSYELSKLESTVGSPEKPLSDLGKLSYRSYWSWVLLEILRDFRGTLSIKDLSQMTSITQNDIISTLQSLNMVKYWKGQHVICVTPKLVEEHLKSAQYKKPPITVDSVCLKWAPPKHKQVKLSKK
# UniProt Q9H3R0: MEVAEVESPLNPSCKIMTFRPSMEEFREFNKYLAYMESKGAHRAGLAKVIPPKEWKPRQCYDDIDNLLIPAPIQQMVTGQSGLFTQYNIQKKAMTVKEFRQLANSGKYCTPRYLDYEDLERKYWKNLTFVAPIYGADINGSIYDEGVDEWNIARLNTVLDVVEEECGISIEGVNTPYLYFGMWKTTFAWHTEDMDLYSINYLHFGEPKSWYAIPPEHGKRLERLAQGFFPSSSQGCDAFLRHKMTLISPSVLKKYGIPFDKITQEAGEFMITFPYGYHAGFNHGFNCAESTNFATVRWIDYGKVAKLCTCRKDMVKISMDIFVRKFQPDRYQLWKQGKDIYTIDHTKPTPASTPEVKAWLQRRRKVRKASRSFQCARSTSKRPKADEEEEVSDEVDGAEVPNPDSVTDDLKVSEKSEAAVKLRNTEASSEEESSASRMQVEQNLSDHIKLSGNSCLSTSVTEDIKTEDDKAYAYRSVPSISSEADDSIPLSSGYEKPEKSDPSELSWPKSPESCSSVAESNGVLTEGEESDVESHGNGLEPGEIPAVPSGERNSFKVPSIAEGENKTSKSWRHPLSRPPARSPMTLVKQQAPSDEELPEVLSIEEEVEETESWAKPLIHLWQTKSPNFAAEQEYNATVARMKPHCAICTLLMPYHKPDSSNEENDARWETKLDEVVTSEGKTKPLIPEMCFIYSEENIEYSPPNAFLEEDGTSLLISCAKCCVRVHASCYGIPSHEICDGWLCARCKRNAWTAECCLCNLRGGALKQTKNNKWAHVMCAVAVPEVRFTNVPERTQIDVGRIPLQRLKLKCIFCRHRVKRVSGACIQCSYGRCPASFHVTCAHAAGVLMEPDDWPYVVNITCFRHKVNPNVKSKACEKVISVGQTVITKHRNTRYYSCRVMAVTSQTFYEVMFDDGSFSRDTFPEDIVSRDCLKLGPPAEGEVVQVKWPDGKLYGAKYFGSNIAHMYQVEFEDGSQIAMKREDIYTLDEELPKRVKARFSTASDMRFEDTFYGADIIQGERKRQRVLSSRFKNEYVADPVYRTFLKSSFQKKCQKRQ
# Compound: Cc1cc(ccc1-c1ccccc1)C(=O)N1CCCN(CC1)C(=O)CCl [compound 10]
# Assay: probe-labelled cysteine peptide fold change vs DMSO (competition) (log2 fold change); higher = less target engagement (more negative = stronger competition)
# Settings: THP-1, incubation time: 4 h
# 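Also: competitive profiling in live THP-1 cells: cysteine peptides tagged with an iodoacetamide desthiobiotin (IA-DTB) probe, intensity after compound treatment relative to DMSO-treated cells.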
Target,probe-labelled cysteine peptide fold change (10 µM),probe-labelled cysteine peptide fold change (50 µM)
KBTBD11_O94819_257_DAAYCFMSDHYLEVLREPAVFGR (UniProt O94819),0.122,-0.103
KARS_Q15046_434_AVECPPPR (UniProt Q15046),-0.237,0.0645
KANSL1_Q7Z3B3_664_LSQLDSCVHPVLAFPDDVPTSLHFQSMLK (UniProt Q7Z3B3),0.225,-0.101
ITPR1_Q14643_326_HLATGHYLAAEVDPDFEEECLEFQPSVDPDQDASR (UniProt Q14643),-0.321,0.0228
KIAA0930_Q6ICG6_269_VSTGDTSPCGTEEDSSPASPMHER (UniProt Q6ICG6),-0.534,-0.842
KCTD5_Q9NXV2_25_GGIGAGLGGGLCR (UniProt Q9NXV2),0.2,-0.225
KANSL2_Q9H9L4_46_LEGQEFCIK (UniProt Q9H9L4),0.221,0.219
KDM1A_O60341_618_CDAVLCTLPLGVLK (UniProt O60341),0.134,0.316
KDM1A_O60341_623_CDAVLCTLPLGVLK (UniProt O60341),0.19,0.403
ITPR1_Q14643_1531_VYHCNWLMPSQK (UniProt Q14643),-0.158,0.328
ITPRID2_P28290_878_TLSTHSVPNISGATCSAFASPFGCPYSHR (UniProt P28290),-0.282,-0.488
KIF1B_O60333_581_EEHCIFR (UniProt O60333),0.279,0.225
JMJD1C_Q15652_1935_SHCHCTNK (UniProt Q15652),0.123,-0.146
KIF1BP_Q96EK5_371_AVQFGTGELCDAISAVEEK (UniProt Q96EK5),-0.257,-0.052
KARS_Q15046_456+463_LVGEFLEVTCINPTFICDHPQIMSPLAK (UniProt Q15046),0.0994,-0.0295
KAT2A_Q92830_695_KVYPGLSCFK (UniProt Q92830),-0.275,-0.87
ITPR3_Q14573_2455_ACDTLLMCIVTVMNHGLR (UniProt Q14573),0.317,0.38
KIF14_Q15058_1418_AASVQEEFMDAVCDGVGLGMK (UniProt Q15058),0.145,0.156
KIF1C_O43896_685_SCEESWR (UniProt O43896),-0.312,-0.0529

Target,probe-labelled cysteine peptide fold change (10 µM),probe-labelled cysteine peptide fold change (50 µM)
KDM5B_Q9UGL1_1221_IWLCPHCR (UniProt Q9UGL1),-0.251,-0.187
ITPR1_Q14643_1255_LAHEFLQNFCAGNQQNQALLHK (UniProt Q14643),0.149,0.339
KEAP1_Q14145_489_LNSAECYYPER (UniProt Q14145),0.272,0.365
KIF11_P52732_723_QTHSQELCK (UniProt P52732),0.0314,-0.326
KDELC1_Q6UW63_153_EMNCPETIAQIQR (UniProt Q6UW63),0.0284,-0.0329
IWS1_Q96ST2_749_ALRPGDPGFCAR (UniProt Q96ST2),-0.224,-0.474
KBTBD11_O94819_455_GAFAVAHEATTCHGEIYVSGGSLFYR (UniProt O94819),-0.0464,0.164
KDM3B_Q7LBC6_1045_EMCDVCETTLFNIHWVCR (UniProt Q7LBC6),0.276,0.238
KDM3B_Q7LBC6_999_YILANVGDQFCQLVMSEK (UniProt Q7LBC6),0.0529,0.0575
ITPR1_Q14643_2542_EHTCETLLMCIVTVLSHGLR (UniProt Q14643),0.0764,0.00799
IVD_P26440_261_GSNTCELIFEDCK (UniProt P26440),0.0481,0.468
KAT8_Q9H7Z6_63_GEPEVTVEIGETYLCR (UniProt Q9H7Z6),0.142,0.0799
KDM2A_Q9Y2K7_463_CLVDKLESLPLHK (UniProt Q9Y2K7),-0.0991,-0.31
KDM3A_Q9Y4C1_467_AGVNSDSPNNCSGK (UniProt Q9Y4C1),-0.0265,0.0124
KIF13B_Q9NQT8_26_CVVDVDANK (UniProt Q9NQT8),-0.0801,-0.119
KDM4C_Q9H3R0_14_MEVAEVESPLNPSCK (UniProt Q9H3R0),0.236,0.0354
KDM4A_O75164_847_TAGCCVQCSHGR (UniProt O75164),-0.101,-0.0403
KARS_Q15046_427_ILDDICVAK (UniProt Q15046),-0.149,-0.135
KDELC2_Q7Z4H8_141_GPVYHEYCECPEDPQAWQK (UniProt Q7Z4H8),-0.0978,-0.115

# Source: the supplement of paper PMC12067093, “Discovery and optimisation of a covalent ligand for TRIM25 and its application to targeted protein ubiquitination” (Chemical Science, 2025)
